Assay results published in patent US9567576B2, “Strain expressing FRSA and method for producing ethanol using same” (SOGANG UNIVERSITY RESEARCH FOUNDATION, priority 2012, dated 2017).
At least one compound was matched to its structure with a doubt left.

The chains behind the UniProt entries cited, without tags or fusion partners. Where a name states a change or a piece, a line headed by the entry shows the natural chain unless it says otherwise.
UniProt Q8DF91: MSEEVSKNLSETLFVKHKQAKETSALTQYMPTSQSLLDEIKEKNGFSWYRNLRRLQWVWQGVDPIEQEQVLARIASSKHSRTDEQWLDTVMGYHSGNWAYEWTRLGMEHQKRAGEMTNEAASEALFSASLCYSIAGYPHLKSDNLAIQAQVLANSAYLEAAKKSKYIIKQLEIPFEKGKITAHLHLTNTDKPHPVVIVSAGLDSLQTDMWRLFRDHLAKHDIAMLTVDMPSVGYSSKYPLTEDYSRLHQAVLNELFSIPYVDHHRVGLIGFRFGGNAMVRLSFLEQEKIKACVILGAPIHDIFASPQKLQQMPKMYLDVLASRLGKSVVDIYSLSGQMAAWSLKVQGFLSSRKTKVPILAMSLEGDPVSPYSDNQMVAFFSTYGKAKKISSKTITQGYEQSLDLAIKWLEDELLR

Legend:
[1] = target: Vibrio vulnificus FrsA, wild type, SEQ ID NO: 2, + phospho-IIA^Glc (Vibrio vulnificus, UniProt Q8DF91); experiment: FrsA pyruvate decarboxylation in the presence of phospho-IIA^Glc; assay type: biochemical
Text: Genomic DNA from V. vulnificus(3) was used as template and as primers Crrexp-F (5′-[…]-3′(SEQ ID NO: 13); BamHI restriction site is underlined) and Crrexp-R (5′-[…]-′3(SEQ ID NO: 14); PstI restriction site is underlined) are used to amplify crr gene of 522-bp in size encoding full length IIA^Glc. The amplified products were then digested with BamHI and PstI and cloned into a vector pQE30 to obtain pQE-crr. Phosphorylated and non-phosphorylated recombinant IIA^Glc proteins were overexpressed in E. coli JM109 in a medium comprising 1.0 mM phophoenolpyruvate or 1.0% glucose, respectively. […]
(§1) FrsA enzymatic analysis was performed in 50 mM sodium phosphate solution (pH 7.0) containing 1 mM DTT and various concentrations of pyruvate. […] The residual NADH in the reaction mixture was determined by measuring absorption at 340 nm. […] The amount of carbon dioxide dissolved in the reaction solution was quantified by spectrophotometry after the reaction solution was treated with 10 mM calcium hydroxide (10). Concentrations of the pyruvate and acetaldehyde in the cell lysates and reaction mixtures were determined using Pyruvate Assay Lit (BioVision, USA) and Acetaldehyde UV-method kit (Roche, USA), respectively according to the manufacturer's instruction. […]
Values of Km and Kcat were calculated as follows. […]

[2] = target: Vibrio vulnificus FrsA, wild type, SEQ ID NO: 2 (Vibrio vulnificus, UniProt Q8DF91); experiment: FrsA-catalysed pyruvate decarboxylation, ADH/NADH coupled acetaldehyde assay; assay type: biochemical
Description: FrsA enzymatic analysis was performed in 50 mM sodium phosphate solution (pH 7.0) containing 1 mM DTT and various concentrations of pyruvate. To measure the amount of acetaldehyde produced from pyruvate, 2 mM NADH and 3.7 U of […] was added to the FrsA reaction mixture (8). Cell lysates from wild-type E. coli and frsA mutants (9) were used in the range of 0.005 to 1 mg in amount. The acetaldehyde reaction was initiated by adding FrsA (1 nM) and incubated at 37° C. for 5 min and stopped by adding 50 mM potassium hydrogen phthalate buffer (pH3.0). The residual NADH in the reaction mixture was determined by measuring absorption at 340 nm. For CO2 measurement, FrsA enzyme reaction was performed in 50 mM Tris-HCl buffer (pH 7.0). The amount of carbon dioxide dissolved in the reaction solution was quantified by spectrophotometry after the reaction solution was treated with 10 mM calcium hydroxide (10). Concentrations of the pyruvate and acetaldehyde in the cell lysates and reaction mixtures were determined using Pyruvate Assay Lit (BioVision, USA) and Acetaldehyde UV-method kit (Roche, USA), respectively according to the manufacturer's instruction. To increase the sensitivity of the Acetaldehyde UV-method kit, the reaction mixture was additionally treated with dye (50 ml of 1.0% Tween 20 solution containing 40 mg iodonitrotetrazolium chloride and 10 mg phenazine methosulfate) followed by absorption measurement at 490 nm (11).
(§2) Values of Km and Kcat were calculated as follows. The concentration of reaction products were calculated in the mM unit from the absorption values which were obtained for a total of 1 min for each substrate concentration (S). Then initial reaction rate (Vo) for each concentration of the substrate was determined (here the unit is mM(product)/sec/mg(enzyme)). Lineweaver-Burk plot was drawn with the reciprocal values of S and Vo on a X and Y axes, respectively in which case, the reciprocal of X-intercept is Km, and the reciprocal of Y-intercept is Vmax. Keat value expressed in the unit of sec^−1 was calculated by changing the unit weight of the enzyme to the concentration in mM in the calculated Vmax (mM(product)/sec/mg(enzyme)).

[3] = test system: Saccharomyces cerevisiae PDC (pyruvate decarboxylase); conditions: PDC Saccharomyces cerevisiae (ref. 23); cited from earlier work
[4] = test system: Zymomonas mobilis PDC (pyruvate decarboxylase); conditions: PDC Zymomonas mobilis (ref. 22); cited from earlier work
[5] = target: Vibrio vulnificus FrsA, wild type, SEQ ID NO: 2, + dephospho-IIA^Glc (Vibrio vulnificus, UniProt Q8DF91); experiment: FrsA pyruvate decarboxylation in the presence of dephospho-IIA^Glc; assay type: biochemical
Text: Genomic DNA from V. vulnificus(3) was used as template and as primers Crrexp-F (5′-[…]-3′(SEQ ID NO: 13); BamHI restriction site is underlined) and Crrexp-R (5′-[…]-′3(SEQ ID NO: 14); PstI restriction site is underlined) are used to amplify crr gene of 522-bp in size encoding full length IIA^Glc. The amplified products were then digested with BamHI and PstI and cloned into a vector pQE30 to obtain pQE-crr. Phosphorylated and non-phosphorylated recombinant IIA^Glc proteins were overexpressed in E. coli JM109 in a medium comprising 1.0 mM phophoenolpyruvate or 1.0% glucose, respectively. The expressed proteins were then prepared using Ni^+-nitrilotriacetic acid affinity column and size exclusion chromatography (Qiagen) according to the manufacturer's instruction as described above.
as §1
as §2, with “Lineweaver-Burk plot was drawn with the reciprocal values of S and Vo on a X and Y axes, respectively in which case, the reciprocal of X-intercept is Km, and the reciprocal of Y-intercept is Vmax.” left out

[6] = wild-type FrsA +dephospho-IIA^Glc

## CC(=O)C(=O)O [pyruvate]
[1]
  kcat: 1,311 ± 48 sec^−1
  kcat/Km: 3,362 ± 150 sec^−1 mM^−1
[2]; ratio FrsA / PDC
  kcat and kcat/km, times higher compared to PDC: 8 times
[2]; ratio FrsA / S. cerevisiae PDC
  Kcat, times higher than that from S. cerevisiae: about 19 times
  Kcat/km, times higher than that from S. cerevisiae: about 110 times
[2]; ratio FrsA / Zymomonas PDC
  Kcat, times higher than PDC of Zymomonas: eight
  Kcat/km, times higher than PDC of Zymomonas: eight
[2]; wild-type FrsA
  kcat: 1,372 11 s^−1
  kcat/km: 3,518 183 s^−1mM^−1
[3]
  Km: 2290 µM
  kcat: 73 s⁻¹
  kcat/Km: 32000 M⁻¹ s⁻¹
[4]
  Km: 400 µM
  kcat: 180 s⁻¹
  kcat/Km: 450000 M⁻¹ s⁻¹
[5]; ratio FrsA + IIA^Glc / PDC
  kcat and kcat/km, times higher compared to PDC, when IIA^Glc was added: 17 times
[5]; [6]
  kcat: 2,980 ± 158 sec^−1
  kcat/Km: 7,641 ± 713 sec^−1 mM^−1
